Reference: article PMC7198045
Results are given in words; binding and its absence hold for the method and conditions named. In cells and extracts the contact can be indirect. Here binding means that the protein was enriched with, or labelled near, the bait; the list need not be complete. For some assays here: Where a sequence is shown, tags or fusion partners need not be part of it.

What was measured:
[1] = target: T1, GFP-tagged full-length VRK1 WT (vaccinia-related kinase 1) (human) (UniProt Q99986); test: affinity purification with mass spectrometry; anti-GFP agarose beads with whole cell extracts of GFP-VRK1 or GFP transfected Huh-7 cells treated with low or high glucose for 3 h; beads washed with Co-IP buffer
T1 sequence: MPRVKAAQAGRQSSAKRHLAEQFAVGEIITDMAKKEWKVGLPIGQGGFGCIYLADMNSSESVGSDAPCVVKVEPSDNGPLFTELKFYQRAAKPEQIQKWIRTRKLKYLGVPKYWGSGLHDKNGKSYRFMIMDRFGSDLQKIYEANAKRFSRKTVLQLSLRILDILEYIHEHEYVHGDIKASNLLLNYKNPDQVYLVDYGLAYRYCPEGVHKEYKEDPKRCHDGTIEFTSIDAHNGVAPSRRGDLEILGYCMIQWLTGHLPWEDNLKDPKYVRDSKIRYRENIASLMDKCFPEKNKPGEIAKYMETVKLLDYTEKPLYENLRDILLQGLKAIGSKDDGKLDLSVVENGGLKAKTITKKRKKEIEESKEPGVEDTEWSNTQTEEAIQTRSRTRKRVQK

[2] = target: T2, VRK1 C-terminal peptide WT (377-396) (human); test: affinity purification with mass spectrometry; C-terminus peptide WT conjugated to Affi-gel10, incubated with whole cell extracts of Huh-7 cells treated with low (40 mg/dl) or high (140 mg/dl) glucose for 3 h; beads washed with Co-IP buffer; 6E peptide on Affi-gel15 as negative bait; only the target purified
T2 sequence (peptide): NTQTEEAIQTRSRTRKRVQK

B1: Plakophilin-2 (PKP2), endogenous in Huh-7 cells (protein, UniProt Q99959 1-881)
chain: MAAPGAPAEYGYIRTVLGQQILGQLDSSSLALPSEAKLKLAGSSGRGGQTVKSLRIQEQVQQTLARKGRSSVGNGNLHRTSSVPEYVYNLHLVENDFVGGRSPVPKTYDMLKAGTTATYEGRWGRGTAQYSSQKSVEERSLRHPLRRLEISPDSSPERAHYTHSDYQYSQRSQAGHTLHHQESRRAALLVPPRYARSEIVGVSRAGTTSRQRHFDTYHRQYQHGSVSDTVFDSIPANPALLTYPRPGTSRSMGNLLEKENYLTAGLTVGQVRPLVPLQPVTQNRASRSSWHQSSFHSTRTLREAGPSVAVDSSGRRAHLTVGQAAAGGSGNLLTERSTFTDSQLGNADMEMTLERAVSMLEADHMLPSRISAAATFIQHECFQKSEARKRVNQLRGILKLLQLLKVQNEDVQRAVCGALRNLVFEDNDNKLEVAELNGVPRLLQVLKQTRDLETKKQITDHTVNLRSRNGWPGAVAHACNPSTLGGQGGRITRSGVRDQPDQHGLLWNLSSNDKLKNLMITEALLTLTENIIIPFSGWPEGDYPKANGLLDFDIFYNVTGCLRNMSSAGADGRKAMRRCDGLIDSLVHYVRGTIADYQPDDKATENCVCILHNLSYQLEAELPEKYSQNIYIQNRNIQTDNNKSIGCFGSRSRKVKEQYQDVPMPEEKSNPKGVEWLWHSIVIRMYLSLIAKSVRNYTQEASLGALQNLTAGSGPMPTSVAQTVVQKESGLQHTRKMLHVGDPSVKKTAISLLRNLSRNLSLQNEIAKETLPDLVSIIPDTVPSTDLLIETTASACYTLNNIIQNSYQNARDLLNTGGIQKIMAISAGDAYASNKASKAASVLLYSLWAHTELHHAYKKAQFKKTDFVNSRTAKAYHSLKD
Question: With B1 as the binder, how does the binding [1] read?
Answer: binds

Question: And the binding [2]?
Answer: binds
